Source: publication PMC3203945
Results are given in words; binding and its absence hold for the method and conditions named. Binding seen in cells or lysates may run through a third protein. Some binding calls cover weakened binding; strength is not graded here. For some assays here: Sequences can lack the tags named with a protein.

The chains behind the UniProt entries cited, without tags or fusion partners. Where a name states a change or a piece, a line headed by the entry shows the natural chain unless it says otherwise. A line that says so, or that is headed by a name, gives the form on record, which may keep a tag or linker.
UniProt P48432: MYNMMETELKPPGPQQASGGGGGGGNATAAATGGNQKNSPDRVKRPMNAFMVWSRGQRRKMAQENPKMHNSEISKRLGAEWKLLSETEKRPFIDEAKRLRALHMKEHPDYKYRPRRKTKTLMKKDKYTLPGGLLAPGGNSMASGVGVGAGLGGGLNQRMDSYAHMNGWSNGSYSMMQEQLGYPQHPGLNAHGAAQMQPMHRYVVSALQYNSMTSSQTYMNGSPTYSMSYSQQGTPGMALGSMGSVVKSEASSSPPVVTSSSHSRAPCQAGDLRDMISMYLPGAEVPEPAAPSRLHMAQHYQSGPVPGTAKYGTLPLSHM
FLAG-Sox2-mut-c (P48432, form named): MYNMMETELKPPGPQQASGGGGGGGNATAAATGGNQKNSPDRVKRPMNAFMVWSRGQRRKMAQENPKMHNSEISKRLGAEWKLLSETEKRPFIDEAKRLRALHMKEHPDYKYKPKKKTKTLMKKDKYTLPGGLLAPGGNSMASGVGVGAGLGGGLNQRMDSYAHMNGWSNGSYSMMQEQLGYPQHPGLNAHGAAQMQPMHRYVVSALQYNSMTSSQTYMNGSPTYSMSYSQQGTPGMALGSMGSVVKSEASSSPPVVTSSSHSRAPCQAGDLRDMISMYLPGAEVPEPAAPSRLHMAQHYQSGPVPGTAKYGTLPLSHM

Tests used:
[1] = biological target: T1, FLAG-CARM1 (coactivator-associated arginine methyltransferase 1), expressed in MCF7 cells (UniProt Q9WVG6); test: co-IP; whole cell extracts of MCF7 cells transfected with FLAG-CARM1 and GFP-Sox2; immunoprecipitation with anti-FLAG, blot with anti-GFP or anti-FLAG; 0.2% NP-40 to lyse cells and wash beads
T1 sequence: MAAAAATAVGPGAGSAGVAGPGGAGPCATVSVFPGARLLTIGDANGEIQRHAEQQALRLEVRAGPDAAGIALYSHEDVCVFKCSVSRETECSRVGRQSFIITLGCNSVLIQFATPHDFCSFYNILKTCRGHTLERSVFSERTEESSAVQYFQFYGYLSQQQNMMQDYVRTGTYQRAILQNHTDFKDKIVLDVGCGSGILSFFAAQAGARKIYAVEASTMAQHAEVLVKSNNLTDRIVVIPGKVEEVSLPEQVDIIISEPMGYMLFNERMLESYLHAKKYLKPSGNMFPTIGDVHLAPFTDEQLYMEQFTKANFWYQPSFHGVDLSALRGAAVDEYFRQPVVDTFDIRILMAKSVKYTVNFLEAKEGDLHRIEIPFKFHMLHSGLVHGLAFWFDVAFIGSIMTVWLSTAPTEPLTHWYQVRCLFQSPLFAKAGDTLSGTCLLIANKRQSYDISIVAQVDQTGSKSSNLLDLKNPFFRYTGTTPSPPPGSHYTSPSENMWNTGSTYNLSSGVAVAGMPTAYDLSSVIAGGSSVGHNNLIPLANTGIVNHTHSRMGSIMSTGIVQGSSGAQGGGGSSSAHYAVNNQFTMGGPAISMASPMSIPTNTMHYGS

GST-Sox2 = GST-Sox2 (UniProt P48432); test: pull-down; bacterially expressed GST-Sox2 incubated with lysates of MCF7 cells expressing FLAG-Sox2 wild-type or mutant-c, with or without FLAG-CARM1; only the target purified

Question: GFP-Sox2 (from UniProt P48432 1-319) was tested. Which binding [1] did it give?
Answer: binds

Question: Which binding (GST-Sox2) does the source give for “FLAG-Sox2-mut-c (from UniProt P48432 1-319)” here?
Answer: binds
